# Laboratory results as given in US5538712A, “Cyclopentadienylcarbonyl 99MTC complexes, process for their production as well as their use in diagnostics” (Institut Fur Diagnostikforschung GmbH/an der Freien …, priority 1990, dated 1996).
# Assay: In vivo SPECT study of cerebral blood flow in rabbits
# Set-up: species or system rabbits (New Zealander)
# Conditions: rabbit SPECT; HM-PAO 59 MBq, 8 minutes p.i.; cytectrene 14 MBq, 15 minutes p.i.
# Experimental: In an in vivo study on rabbits (New Zealander, breeding by Schering AG Berlin, approximately 4 kg, male), the cerebral blood flow of commercially available HM-PAO was compared with the N-methyl-piperidin-4-ol-cytectrenecarboxylic acid ester (produced analogously to example 6).
# The study was made with a SPECT camera of Apex 409 type.
# After nembutal anesthesia, the animal was intravenously administered 1 ml of an isotonic, aqueous, sterile solution of ^99m Tc-HMPAO or said cytectrene derivative.
# The recording technique and the results are described by the following table.
row,Molecule,static: [(σ cts/pixel)(μcts/pixel)^-1 100] [%]
1,"C/C(=N\O)C(C)NCC(C)(C)CNC(C)/C(C)=N/O (centres unmarked) [HM-PAO, hexamethyl-propylenamine oxime, reference compound]",2
2,cyclopentadienylcarboxylic acid-(N-methyl-piperidinol)-4-ester-^99m technetium-tricarbonyl complex,1.4
